The campaign covered roughly 220,000 compounds. About 770 (0.35%) were called active. Inconclusive means that the source gave no clear call. Such entries were picked first, then a sample of the others. Cut-off read from the data, not from the text of the source: active = binding response below about 49% or above about 150%; inconclusive = no clear call, values can overlap the other calls; inactive = in between.
Each compound was assayed against Guanine nucleotide-binding protein G(o) subunit alpha (Homo sapiens) (UniProt P09471) (assay: RGS7-Galphao binding modulators, primary screen, biochemical, multiplexed bead flow cytometry (AID 1439;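 note: fluorescent Galphao held in activated GDP-AlF4 state binding bead-coupled RGS7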)). Details: at 10 µM, actives lie on both sides.

Sequences of proteins named here, by UniProt entry; tags and fusion partners are left off.
UniProt P09471, whole entry, looked up: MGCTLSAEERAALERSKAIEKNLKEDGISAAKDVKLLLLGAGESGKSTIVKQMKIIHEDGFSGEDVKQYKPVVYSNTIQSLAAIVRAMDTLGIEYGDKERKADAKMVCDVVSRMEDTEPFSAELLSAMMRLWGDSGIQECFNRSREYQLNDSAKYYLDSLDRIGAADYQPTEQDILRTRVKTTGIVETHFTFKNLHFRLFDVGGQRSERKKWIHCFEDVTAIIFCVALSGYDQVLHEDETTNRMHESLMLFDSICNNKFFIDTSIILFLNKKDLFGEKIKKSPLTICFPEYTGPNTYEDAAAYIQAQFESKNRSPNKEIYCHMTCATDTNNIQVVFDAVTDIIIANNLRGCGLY

SMILES | binding response (% of control)
Nc1nc2cc(S(=O)(=O)NC3=NCCCCC3)ccc2s1 | inconclusive: 90.1%
O=C(C1CCN(S(=O)(=O)c2cnc[nH]2)CC1)N1CCN(c2ncccn2)CC1 | inactive: 101%
Cc1cc(NC(=O)COC(=O)CNS(=O)(=O)c2ccc(C)c(C)c2)no1 | inactive: 98.2%
CC(=O)c1ccc(N2CCN(C(=O)Nc3ccc(C)cc3)CC2)cc1 | inconclusive: 122%
O=C(c1ccccc1)N1CN2CN(C(=O)c3ccccc3)CC([N+](=O)[O-])(C2)C1 | inactive: 89.7%
COc1ccccc1-n1cnc2cc(NCc3ccco3)ccc21 | inactive: 99.5%
Cc1nn(C)c(C(=O)N/N=C/c2ccccc2)c1[N+](=O)[O-] | inactive: 101%
Cc1nnsc1C(=O)N1CCC(CO)(Cc2ccccc2Cl)CC1 | inconclusive: 129%
[N-]=[N+]=CC(=O)C(c1ccccc1)(c1ccccc1)c1ccccc1 | inconclusive: 103%
CN(C)C(=S)c1ccccc1 | inconclusive: 123%
O=C(c1ccco1)N1N=C(c2ccccc2)CC1c1ccc2nccnc2c1 (stereo unspecified) | inconclusive: 107%
CC(C)=NOc1cc(NC(=O)CCl)cc([N+](=O)[O-])c1 | inactive: 99.7%
O=C(C1CCN(Cc2nc(-c3ccc(Cl)cc3)no2)CC1)N1CCOCC1 | inconclusive: 44.8%
N/C(=N\OC(=O)CCn1cccc(C(F)(F)F)c1=O)c1ccc(Cl)cc1 | inconclusive: 77%
Cc1cc(=O)n2[nH]c(CCC(=O)O)nc2n1 | inconclusive: 110%
Cc1ccc(CN2C(=O)N/C(=C/c3ccc(-c4ccc(C(=O)O)cc4)o3)C2=O)cc1 | inconclusive: 95.2%
Cc1ccc(NS(=O)(=O)c2ccc(N/N=C/c3ccccc3OCC(=O)O)c([N+](=O)[O-])c2)c(C)c1 | inconclusive: 55.8%
Cc1ccc(-c2nc3c4ccccc4ccn3c2CN2CCCCC2)cc1 | inconclusive: 89%
O=C(NCCc1ccc([N+](=O)[O-])cc1)c1ccccc1 | inconclusive: 115%
O=C(NCCCN1CCOCC1)c1ccccc1NS(=O)(=O)c1ccc(F)cc1 | inconclusive: 88.5%
O=S(=O)(CCN1CCN(c2ccccn2)CC1)c1ccc(F)cc1 | inconclusive: 93.1%
CSCC[C@H](NC(=O)NC1CCCC1)C(=O)O | inconclusive: 130%
CSc1ccc(CN2CCN(C(=O)c3ccc([N+](=O)[O-])cc3)CC2)cc1 | inactive: 95.7%

Part of the list above, as comma-separated lines.
SMILES,binding response (% of control)
CN(C)C(=S)c1ccccc1,inconclusive: 123%
O=C(c1ccco1)N1N=C(c2ccccc2)CC1c1ccc2nccnc2c1 (stereo unspecified),inconclusive: 107%

(continued)

SMILES | binding response (% of control)
Clc1cccc(CN2CCCCCCC2)c1Cl | inactive: 99%
CCCc1nnc(NC(=O)OCC)s1 | inactive: 108%
NC(=S)NNC(=O)c1ccccc1Cl | inconclusive: -655%
CCn1c(SCC(=O)N/N=C\c2ccccc2OCC(=O)O)nnc1-c1ccc(Cl)cc1 | inconclusive: 143%
COC(CN1CCc2c(C)nc3c(C#N)cnn3c21)OC | inconclusive: 94.9%
O=C(CN1C(=O)C2CC=CCC2C1=O)NCC(=O)Nc1ccc(F)c(F)c1F (stereo unspecified) | inconclusive: 129%
CC(=O)/C(CN1CCCCC1)=N\O | inactive: 136%
CO/N=C/C1C(=O)NN=C1c1ccccc1 (stereo unspecified) | inconclusive: 114%
O=C(O)c1ccc(N=Nc2c(O)[nH]c3cc(Cl)ccc23)cc1 | inconclusive: 99.3%
CCN(CC)CCNC(=O)c1ccc(NC(=O)c2ccc(Cl)c(S(=O)(=O)N3CCCCCC3)c2)cc1 | inconclusive: 767%
O=C(COc1ccccc1)NC1CCS(=O)(=O)C1 (stereo unspecified) | inactive: 91.4%
Cc1[nH]c(=O)[nH]c(=O)c1/C=N\NC(=O)CCc1ccc(OC(C)C)cc1 | inconclusive: 95.6%
Cc1onc(-c2ccccc2)c1CNS(=O)(=O)c1ccc(F)cc1F | inconclusive: 88%
Cc1cc(C(=O)OCC(N)=O)c(C)n1-c1ccccc1 | inconclusive: 107%
COCCCNc1nc2ccccc2nc1NS(=O)(=O)c1ccc(C)c(C)c1 | inconclusive: -191%
CC(C)Cc1nc2sc3c(c2c(=O)n1N)CC(C)(C)OC3 | inconclusive: 115%
Cc1nn(CC(=O)Nc2ccc3c(c2)OCO3)c(C)c1[N+](=O)[O-] | inconclusive: 99.3%
COc1ccc(Nc2nc3ccccc3nc2NS(=O)(=O)c2ccc(NC(C)=O)cc2)cc1 | inconclusive: 112%
O=C(O)c1cccc(NC(=S)NC(NC(=O)c2cccc([N+](=O)[O-])c2)C(Cl)(Cl)Cl)c1 (stereo unspecified) | inconclusive: 106%
CC(=O)c1nnn(-c2cccc(C#N)c2)c1C | inconclusive: 107%
CCc1ccc(Nc2c([N+](=O)[O-])c(=O)oc3ccccc23)cc1 | inconclusive: 97.9%
COc1ccc(CC(=O)OCc2cc(=O)n3cc(Br)ccc3n2)cc1OC | inactive: 107%
C=C1C(=O)O[C@@H]2C[C@@H](C)[C@@H]3C=CC(=O)[C@@]3(C)[C@@H](OC(C)=O)[C@H]12 | inconclusive: 43.3%

6 records picked at random from those above, as already listed:
SMILES | binding response (% of control)
CCn1c(SCC(=O)N/N=C\c2ccccc2OCC(=O)O)nnc1-c1ccc(Cl)cc1 | inconclusive: 143%
CCN(CC)CCNC(=O)c1ccc(NC(=O)c2ccc(Cl)c(S(=O)(=O)N3CCCCCC3)c2)cc1 | inconclusive: 767%
CO/N=C/C1C(=O)NN=C1c1ccccc1 (stereo unspecified) | inconclusive: 114%
Cc1nn(CC(=O)Nc2ccc3c(c2)OCO3)c(C)c1[N+](=O)[O-] | inconclusive: 99.3%
CCc1ccc(Nc2c([N+](=O)[O-])c(=O)oc3ccccc23)cc1 | inconclusive: 97.9%
CC(=O)/C(CN1CCCCC1)=N\O | inactive: 136%

(next part)

SMILES | binding response (% of control)
Cn1cc(/C=C/C(=O)N2CCCC(C(=O)c3ccc(C(C)(C)C)cc3)C2)cn1 (stereo unspecified) | inactive: 101%
COc1c2c(cc3oc(=O)ccc13)OC(C)(C)C=C2 | inconclusive: 140%
O=C(Nc1ccccc1F)Nc1cccc2ccc(O)cc12 | inconclusive: 63.5%
CCOC(=O)c1ccc(N=C2SC(C(=O)NCCc3ccccc3)CC(=O)N2C)cc1 (stereo unspecified) | inconclusive: 95.9%
O=C(O)c1ccccc1/C=N/NC(=S)NC1CCCCC1 | inconclusive: 124%
CCn1c(SCC#N)nc2ccccc2c1=O | inconclusive: 88.1%
c1ccc(Oc2nc(-c3cccnc3)nc3ccccc23)cc1 | inconclusive: 103%
Cc1ccc2[nH]c(=O)c(CN(CC3CCCO3)C(=S)Nc3ccccc3)cc2c1 (stereo unspecified) | inactive: 100%
CCOC(=O)/C(=N\Nc1ccccc1Cl)N1CC(C)OC(C)C1 (stereo unspecified) | inconclusive: 89.4%
Cc1ccc(/C=C/C(=O)O)cc1S(=O)(=O)NCc1cccnc1 | inconclusive: 40.2%
NS(=O)(=O)c1ccc(CCn2c(=S)[nH]c3ccccc3c2=O)cc1 | inconclusive: 92.3%
COc1cc(/C=N/N=C(N)N)ccc1OCc1ccc(Cl)cc1 | inconclusive: 78.5%
CCOC(=O)Cc1csc(NC(=S)NC(=O)c2cc(OC)c(OC)c(OC)c2)n1 | inconclusive: 75%
COc1ccc(C2CC(c3cccs3)=NN2C(=O)COC(=O)c2cncc(Br)c2)cc1OC (stereo unspecified) | inconclusive: 111%
O=C(Nc1cccc([N+](=O)[O-])c1)Nc1cccc([N+](=O)[O-])c1 | inactive: 105%
CCN(CC)c1ccc(/C=N/NC(=O)c2ccc3nc[nH]c3c2)cc1 | inconclusive: 151%
O=C(NN1CCOCC1)c1ccc(Br)s1 | inconclusive: 85.4%
CC1(C)N=C(N)N=C(N)N1c1ccc(OCCCOc2ccccc2)c(Cl)c1 | inconclusive: 135%
CCOC(=O)C1(Cc2cccc(F)c2)CCN(C(=O)COC)CC1 | inconclusive: 114%
O=[N+]([O-])c1cc(Cl)cc(/C=N/n2cnnc2)c1O | inconclusive: 123%
NS(=O)(=O)c1ccc(N=Cc2c(O)n(-c3nccs3)c(=O)c3ccccc23)cc1 | inconclusive: -268%
N#Cc1ccccc1S(=O)(=O)c1ccccc1C(=O)Nc1ccccc1 | inactive: 114%
CSc1ccccc1C(=O)N(C)Cc1ccccc1 | inconclusive: 125%

SMILES | binding response (% of control)
O=C1COc2ccc(S(=O)(=O)N3CCc4ccccc43)cc2N1 | inconclusive: 119%
COc1ccc(C(=O)/C=C/Sc2nc3ccccc3o2)cc1 | inconclusive: -372%
O=C(NCCCN1CCC(Cc2ccccc2)CC1)c1ccc2nc(N3CCOCC3)sc2c1 | inconclusive: 88.2%
Cc1oc(-c2ccccc2)nc1C(=O)N1CCN(c2ccc(F)cc2)CC1 | inconclusive: 88.4%
COc1cccc(N/N=C/c2cccc(Br)c2O)c1 | inconclusive: 91.5%
Cc1ccc(-n2cccc2/C=C2/C(=N)N3C(=NC2=O)SN=C3S(C)(=O)=O)cc1Cl | active: 45.1%
Cc1ccc(-c2nc3[nH]c(=O)cc(NC(=O)c4cccs4)n3n2)cc1 | inconclusive: 95.4%
Fc1ccc(-c2nn(-c3ccccc3)cc2CNCc2ccccc2)cc1 | inconclusive: 95.1%
CN(C)CCCN(C(=O)COc1ccccc1)c1nc2c(Cl)cccc2s1 | inconclusive: 90%
CCOC(=O)c1csc(-n2nc(C)cc2C(F)(F)F)n1 | inconclusive: 85.4%
COC(=O)CNC(=O)C12CC3CC(C1)CC(c1ccc(C)cc1)(C3)C2 | inconclusive: 84.9%
CCOc1ccc(Nc2nnc(SCc3nc4ccccc4c(=O)[nH]3)s2)cc1 | inconclusive: 100%
COc1cc(C(=O)NCCc2ccc3c(c2)OCCO3)ccc1OCC(=O)N1CCOCC1 | inactive: 119%
Cc1ccc(C(=O)c2oc3nc(C)cc(C)c3c2N)cc1 | inactive: 98.8%
Cn1cccc1/C=C1\SC(=S)N(NC(=O)c2ccc(F)cc2)C1=O | inconclusive: 21%
Cc1nc(-c2nc(-c3c(C(=O)NNC(=O)Nc4cccc(Cl)c4)noc3C)cs2)cs1 | inconclusive: 43.2%
O=C(Cc1ccccc1Cl)N1CCN(c2ccccn2)CC1 | inconclusive: 114%
CCOc1ccc2nc(Cl)c(C3CC(c4ccco4)=NN3S(C)(=O)=O)cc2c1 (stereo unspecified) | inconclusive: -46.6%
CC(Nc1ccccc1CO)C(=O)Nc1cccc(Cl)c1Cl (stereo unspecified) | inconclusive: 111%
COc1cc(NC(=O)SC2=NCCS2)cc(OC)c1 | inconclusive: 304%
O=C(O)COc1ccccc1/C=N/NC(=O)CSc1nnc(-c2ccc(Cl)cc2)n1C1CCCCC1 | inconclusive: 133%
Cc1cccc(C(=O)OCc2cncs2)c1 | inconclusive: 90.7%

Reference: PubChem BioAssay AID1439 (NMMLSC, 2008)
